Laboratory results published in the supplement of paper PMC4683952.
Counter-ions that a name gives are not always drawn. The campaign covered roughly 1,200 compounds. About 50 (4%) showed activity. No stated cut-off is given here; in the data, all actives reach 1.3 or more but so do some inactives. This is one part of the list.

These molecules were tested on Lgr5 (MarsCy1-Lgr5-EGFP, U2OS) (assay: cell-surface Lgr5 expression (SCi1 fluorescence, background-subtracted) relative to WT DMSO (fold of DMSO control); higher = more Lgr5 at the plasma membrane, active = hit call of the paper). Conditions: U2OS MarsCy1-Lgr5-EGFP stable; treatment time: overnight; 16 µM; library: Johns Hopkins Clinical Compound Library.

cell-surface Lgr5 expression, inactive:
O=P([O-])([O-])[O-].[Al+3] [Aluminum Phosphate] 1.15
ClC(Cl)Cl [Chloroform] 0.969
OCCN(CCO)c1nc(N2CCCCC2)c2nc(N(CCO)CCO)nc(N3CCCCC3)c2n1 [Dipyridamole] 1.03
O=C(O)c1ccccc1C(=O)Nc1ccc(S(=O)(=O)Nc2nccs2)cc1 [Phthalylsulfathiazole] 0.867
CO[C@@H]1[C@@H](O[C@@H]2O[C@H](C)[C@@H](O[C@H]3C[C@@](C)(O)[C@@H](OC(=O)CC(C)C)[C@H](C)O3)[C@H](N(C)C)[C@H]2O)[C@@H](CC=O)C[C@@H](C)[C@@H](O)/C=C/C=C/C[C@@H](C)OC(=O)C[C@H]1OC(C)=O [Josamycin] 1.1
CC(=O)CC(c1ccccc1)c1c(O)c2ccccc2oc1=O (stereo not drawn) [Warfarin (3-3-alpha-acetonylbenzyl-4-hydroxycoumarin)] 1.13
CC(=O)OCC(=O)[C@@]12OC(C)(C)O[C@@H]1C[C@H]1[C@@H]3CCC4=CC(=O)C=C[C@]4(C)[C@@]3(F)[C@@H](O)C[C@@]12C [Triamcinolone acetonide acetate] 1.26
CCC(=O)O[C@@H]1CC(=O)O[C@H](C)C/C=C/C=C/[C@H](O)[C@H](C)C[C@H](CC=O)[C@H](O[C@@H]2O[C@H](C)[C@@H](O[C@H]3C[C@@](C)(O)[C@@H](OC(=O)CC)[C@H](C)O3)[C@H](N(C)C)[C@H]2O)[C@H]1OC [Midecamycin] 0.891
CCN(CC)CC(=O)Nc1c(C)cccc1C [Lidocaine] 1.19
OCc1ccccc1O[C@@H]1O[C@H](CO)[C@@H](O)[C@H](O)[C@H]1O [Salicin] 1.17
C=CC1=C(C(=O)O)N2C(=O)[C@@H](NC(=O)/C(=N\O)c3csc(N)n3)[C@H]2SC1 [Cefdinir] 1.06
CN1C(CCl)Nc2cc(Cl)c(S(N)(=O)=O)cc2S1(=O)=O (centres undefined) [Methyclothiazide] 0.905
CC[C@H](C)[C@@H]1NC(=O)[C@H](Cc2ccc(O)cc2)NC(=O)[C@@H](N)CSSC[C@@H](C(=O)N2CCC[C@H]2C(=O)N[C@@H](CC(C)C)C(=O)NCC(N)=O)NC(=O)[C@H](CC(N)=O)NC(=O)[C@H](CCC(N)=O)NC1=O [Oxytocin] 1.06
Cc1cn([C@H]2C=C[C@@H](CO)O2)c(=O)[nH]c1=O [Stavudine (2',3'-Didehydro-3'-Deoxythymidine)] 0.981
OO.[Zn] [Zinc peroxide] 0.874
COc1cccc2c1C(=O)c1c(O)c3c(c(O)c1C2=O)C[C@@](O)(C(C)=O)C[C@@H]3O[C@H]1C[C@H](N)[C@H](O)[C@H](C)O1 [Daunorubicin] 0.502
CC(O)Cn1cnc2c1c(=O)n(C)c(=O)n2C (stereo not drawn) [Proxyphylline (17-beta-hydroxypropyltheophylline)] 0.877
CCC1(C)OC(=O)N(C)C1=O (centres undefined) [Paramethadione] 0.585
O=C(OOC(=O)c1ccccc1)c1ccccc1 [Benzoyl peroxide] 0.867
NS(=O)(=O)c1cc2c(cc1C(F)(F)F)NCNS2(=O)=O [Hydroflumethiazide] 1.01
CN1[C@@H]2CC[C@H]1CC(OC(=O)C(O)c1ccccc1)C2 (mixture of isomers) [DL-homatropine] 0.683
[S-2].[Zn+2] [Zinc sulfide] 0.879
CN1C(=O)CC[C@H]1c1cccnc1 [Cotinine] 0.893
CC[C@@H]1C(=O)OC[C@@H]1Cc1cncn1C [Pilocarpine hydrochloride] 0.698
CCN1C(=CC=Cc2ccc3ccccc3[n+]2CC)C=Cc2ccccc21 [Quinaldine blue (Pinacyanol chloride)] 1.53
CC(C)(C)CC(C)(C)c1cc(Cc2cc(C(C)(C)CC(C)(C)C)cc(-n3nc4ccccc4n3)c2O)c(O)c(-n2nc3ccccc3n2)c1 [Bisoctrizole (2,2'-Methylenebis)] 1
O=C(CCNNC(=O)c1ccncc1)NCc1ccccc1 [Nialamide] 0.469
COc1cccc2c1C(=O)c1c(O)c3c(c(O)c1C2=O)C[C@@](O)(C(=O)CO)C[C@@H]3O[C@H]1C[C@H](N)[C@@H](O)[C@H](C)O1 [Epirubicin] 1.31
C/C=C/c1ccc(OC)cc1 [trans-Anethole] 0.977
O[C@H]1[C@H](O)[C@@H](O)[C@H](O)[C@@H](O)[C@H]1O [Inositol] 0.825
O[C@H]1[C@H](O)[C@@H](O)[C@H](O)[C@@H](O)[C@H]1O [myo-Inositol] 0.994
O=C([O-])[O-].[Zn+2] [Zinc carbonate] 1.19
CCCCCCCCOc1ccc(C(=O)c2ccccc2)c(O)c1 1.12
Cc1ccc2ccccc2n1 [Quinaldine] 1.33
CC1=C(/C=C/C(C)=C/C=C/C(C)=C\CO)C(C)(C)CCC1 [Neovitamin A (13-cis-retinal)] 1.05
Cc1ncc([N+](=O)[O-])n1CC(C)O (centres undefined) [Secnidazole] 1.07
O=C(O)c1ccccc1OP(=O)(O)O [Fosfosal (O-Carboxyphenyl phosphate)] 1.13
COc1ccc2cc([C@H](C)C(=O)O)ccc2c1 [Naproxen sodium] 1.03
COc1ccc2cc([C@H](C)C(=O)O)ccc2c1 [Naproxen (s-6-methoxy methyl 2-naphthalene acetic acid)] 0.783
O=C([O-])c1ccccc1.[Li+] [Lithium benzoate] 0.549
CC1(C)S[C@@H]2[C@H](NC(=O)[C@H](N)c3ccccc3)C(=O)N2[C@H]1C(=O)O [Ampicillin] 0.908
CC1(C)S[C@@H]2[C@H](NC(=O)[C@H](N)c3ccccc3)C(=O)N2[C@H]1C(=O)O [Ampicillin Sodium Salt] 0.927
C=C[C@H]1CN2CC[C@H]1C[C@H]2[C@H](O)c1ccnc2ccc(OC)cc12 [Quinine] 1.48
C=C[C@H]1CN2CC[C@H]1C[C@H]2[C@H](O)c1ccnc2ccc(OC)cc12 [Quinine bisulfate] 1.26
C=C[C@H]1CN2CC[C@H]1C[C@H]2[C@H](O)c1ccnc2ccc(OC)cc12 [Quinine hydrobromide] 1.42
O=C(O)c1cc(=O)[nH]c(=O)[nH]1 [Orotic acid] 1.02
CCC(NC(C)C)C(O)c1ccc(O)c2[nH]c(=O)ccc12 (centres undefined) [Procaterol] 1.25
CCOC(=O)c1cnc2c(cnn2CC)c1NN=C(C)C [Etazolate hydrochloride, solid] 1.32
CCOC(=O)c1cnc2c(cnn2CC)c1NN=C(C)C [Etazolate Hydrochloride] 1.35
CCOc1ccc2nc(S(N)(=O)=O)sc2c1 [Ethoxzolamide (6-Ethoxy-2-benzothiazolesulfonamide)] 1.15
O=c1oc2cc(O)ccc2s1 [Tioxolone (6-hydroxy-1,3-benzoxathiol-2-one)] 1.13
CC1/C=C/C=C/C=C/C=C/C=C/C=C/C=C/C(OC2O[C@H](C)[C@@H](O)[C@H](N)[C@@H]2O)CC(O)C(C(=O)O)C(O)CC(=O)CC(O)CC(O)CC(O)CC(=O)CCCC(=O)CC(=O)OC1C(C)CC(C)C(O)CC(=O)c1ccc(N)cc1 (some centres undefined) [Candicidin] 0.694
CN/C(=N\CCSCc1nc[nH]c1C)NC#N [Cimetidine] 1.11
[Li+].[OH-] [Lithium Hydroxide] 1.16
O=C(O)c1cc(/N=N/c2ccc(S(=O)(=O)Nc3ccccn3)cc2)ccc1O [Sulfasalazine] 0.845
CN1CCCN=C1/C=C/c1cccc(O)c1 [Oxantel] 0.891
N#CCC(=O)NN [Cyacetacide (cyanoacetohydrazide)] 1.21
C[C@@H](O[C@H]1OCCN(Cc2n[nH]c(=O)[nH]2)[C@H]1c1ccc(F)cc1)c1cc(C(F)(F)F)cc(C(F)(F)F)c1 [Aprepitant] 1.01
CC1(C)S[C@@H]2[C@H](NC(=O)C3(N)CCCCC3)C(=O)N2[C@H]1C(=O)O [Cyclacillin] 0.994
CC=CC1=C(C(=O)O)N2C(=O)[C@@H](NC(=O)[C@H](N)c3ccc(O)cc3)[C@H]2SC1 [Cefprozil] 0.821
NC(=O)CC[C@H](N)C(=O)O [L-Glutamine] 1.18
CC(C)OC(=O)C(C)(C)Oc1ccc(C(=O)c2ccc(Cl)cc2)cc1 [Fenofibrate] 1.14

Nothing new here: entries from further up.
cell-surface Lgr5 expression, inactive:
OCc1ccccc1O[C@@H]1O[C@H](CO)[C@@H](O)[C@H](O)[C@H]1O [Salicin] 1.17
C=CC1=C(C(=O)O)N2C(=O)[C@@H](NC(=O)/C(=N\O)c3csc(N)n3)[C@H]2SC1 [Cefdinir] 1.06
CN1C(CCl)Nc2cc(Cl)c(S(N)(=O)=O)cc2S1(=O)=O (centres undefined) [Methyclothiazide] 0.905
CC[C@H](C)[C@@H]1NC(=O)[C@H](Cc2ccc(O)cc2)NC(=O)[C@@H](N)CSSC[C@@H](C(=O)N2CCC[C@H]2C(=O)N[C@@H](CC(C)C)C(=O)NCC(N)=O)NC(=O)[C@H](CC(N)=O)NC(=O)[C@H](CCC(N)=O)NC1=O [Oxytocin] 1.06
Cc1cn([C@H]2C=C[C@@H](CO)O2)c(=O)[nH]c1=O [Stavudine (2',3'-Didehydro-3'-Deoxythymidine)] 0.981
OO.[Zn] [Zinc peroxide] 0.874

Following part:

cell-surface Lgr5 expression, active:
CC(=O)OCC(=O)[C@@]12OC(C)(C)O[C@@H]1C[C@H]1[C@@H]3C[C@H](F)C4=CC(=O)C=C[C@]4(C)[C@@]3(F)[C@@H](O)C[C@@]12C [Fluocinolone acetonide 21-acetate] 1.6
C[C@]12CCC(=O)C=C1CC[C@@H]1[C@@H]2[C@@H](O)C[C@]2(C=O)[C@@H](C(=O)CO)CC[C@@H]12 [Aldosterone] 1.55
